In publication doi:10.1101/2022.07.10.499475:
Construct, isoform or probe ends are uncertain for at least one entry. For some assays here: Negatives hold for the conditions tested.

Legend:
Assay in all cases: EMSA
FMRP C-IDR (human) = FMRP C-IDR (human) (UniProt Q06787); details: residues 445-632
[1] = biological target: FMRP N-Fold-I304N (human) (UniProt Q06787); details: residues 1-455
FMRP N-Fold-WT (human) = FMRP N-Fold-WT (human) (UniProt Q06787); details: residues 1-455
FMRP-I304N (human) = FMRP-I304N (human) (UniProt Q06787); details: residues 1-632
FMRP-WT (human) = FMRP-WT (human) (UniProt Q06787); details: residues 1-632

## ACGCTGCCGAATTCTACCAGTGCCTTGCTAGGACATCTTTGCCCACCTGCAGGTTCACCC [ssDNA (60 bs)]
FMRP C-IDR (human)
  Kd: 79.6 nM
[1]
  binding result: no binding
FMRP N-Fold-WT (human)
  Kd: 617 nM
FMRP-I304N (human)
  Kd: 388 nM
FMRP-WT (human)
  Kd: 302 nM
